Test results as given in paper PMC3210732, “Purification and characterization of novel fibrinolytic proteases as potential antithrombotic agents from earthworm Perionyx excavatus” (AMB Express, 2011).
Non-standard residues stand in square brackets, D forms with d. Residues, ends and D or L forms follow the SMILES beside them. *: point of attachment. Sta = CC(C)C[C@H](N)[C@@H](O)CC(=O)O; Isovaleryl = CC(C)CC(=O)*

Tested on: T1, FIII-3
T1 construct: gene earthworm fibrinolytic protease; native, purified from earthworm autolysate; 31 kDa active protein together with 33 kDa protein (supposed zymogen)
Assay: caseinolytic inhibition assay
Assay type: biochemical, Perionyx excavatus
Settings: casein substrate, 50 mM sodium phosphate pH 7.5, 37 °C, 10 min, residual activity, control 100%
Description: caseinolytic inhibition assay on FIII-3

SMILES	Relative activity (%) / FIII-3 (1000 µM) [%]	Relative activity (%) / FIII-3 (100 µM) [%]
CC(C)CC(=O)N[C@H](C(=O)N[C@H](C(=O)N[C@@H](CC(C)C)[C@@H](O)CC(=O)N[C@@H](C)C(=O)N[C@@H](CC(C)C)[C@@H](O)CC(=O)O)C(C)C)C(C)C [pepstatin] (Isovaleryl-VV[Sta]A[Sta]-OH)	83	
Cc1ccc(S(=O)(=O)N[C@@H](Cc2ccccc2)C(=O)CCl)cc1 [TPCK]		76
